Results taken from PubChem BioAssay AID1487 (National Center for Advancing Translational Sciences (NCATS), 2009).
Some of the results follow. Further columns of the screen follow, without active or inactive calls. The list favours compounds with an active or inconclusive main result. The note in brackets gives the kind of curve behind each potency; many fits are weak.

Experiment: qHTS Assay for Modulators of Lamin A Splicing
Conditions: HeLa LMNA splicing GFP/RFP minigene ratio, 48 h
Summary of the method: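 S3 HeLa cells stably expressing lamin A-EGFP splicing minigene plus DsRed2, 600 cells/well, 48 h compound exposure at 37C. Laser-scanning cytometry; analysed as GFP (500-530 nm)/RFP (575-640 nm) total intensity ratio; 0.5% DMSO vehicle.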

[1] = measured here: RFP viability control channel
[2] = measured here: GFP splicing reporter channel

Row | SMILES | AC50 [1] | AC50 [2]
1 | CC1(C)Cc2ccccc2-c2n[nH]c(=S)n21 | 35.5 µM [falling, single point] | –
2 | CSc1nc(N)c(C#N)c(-c2ccc(Cl)cc2)c1C#N | 0.0224 µM [falling, full curve, poor fit] | –
3 | Cc1cccc(CNc2nc(-c3ccc(C(=O)N(C)C)cc3)nc3ccccc23)c1 | 11.2 µM [rising, partial curve] | 22.4 µM [falling, single point]
4 | C=CCn1c(SCC(=O)c2cc(C)n(C(C)COC)c2C)nc2sc(C)c(C)c2c1=O (configuration not stated) | 31.6 µM [rising, single point] | –
5 | O=C(COc1ccccc1)NCC(=O)N/N=C/c1ccco1 | 28.2 µM [falling, partial curve, poor fit] | –
6 | CCOc1cc(NC(=S)NC)c(OCC)cc1NC(=O)c1ccco1 | 0.0224 µM [falling, full curve, poor fit] | 0.0355 µM [falling, full curve, poor fit]
7 | O=[N+]([O-])c1ccc(NCCCNS(=O)(=O)c2ccccc2)c(Cl)c1 | 7.94 µM [rising, partial curve] | –
8 | CCOc1ccccc1NC1=C(Cl)C(=O)N(c2ccc(OC)cc2)C1=O | 22.4 µM [rising, single point] | –
9 | CC[C@@]1(O)C(=O)OCc2c1cc1n(c2=O)Cc2cc3c(CN(C)C)c(O)ccc3nc2-1 | 0.251 µM [rising, full curve] | 0.794 µM [falling, single point]
10 | CC(=O)c1c(C)[nH]c(C(=O)OCc2nnc(-c3ccccc3)o2)c1C | 17.8 µM [rising, single point] | 11.2 µM [rising, single point]
11 | CCOc1ccccc1NS(=O)(=O)c1cc2[nH]c(=O)c(=O)[nH]c2cc1C | 0.02 µM [falling, partial curve, poor fit] | 0.0224 µM [falling, partial curve, poor fit]
12 | CCCC/C(C)=N/NC(=O)CN(c1ccc(Br)cc1)S(=O)(=O)c1ccccc1 | – | 35.5 µM [rising, single point]
13 | COc1ccc(N=Cc2c(O)[nH]c3ccccc23)cc1OC | 20 µM [rising, partial curve, poor fit] | –
14 | CCOC(=O)C1=C(CC)Nc2ccccc2N=C1NC(=O)Nc1ccc(Cl)c(Cl)c1 | 35.5 µM [rising, single point] | –
15 | COc1ccc(NS(=O)(=O)c2ccc(NC(=S)NC(=O)/C=C/c3ccc(C)cc3)cc2)nn1 | 20 µM [rising, single point] | –
16 | Cc1ccc(C(=O)CSC2=C(C#N)C(c3ccco3)CC(=O)N2)c(C)c1 (configuration not stated) | 20 µM [rising, single point] | 11.2 µM [rising, single point]
17 | CCOc1cc(/C=C2\SC(=Nc3ccccc3)N(c3ccccc3)C2=O)ccc1OCC(=O)O | 8.91 µM [rising, partial curve] | 11.2 µM [rising, partial curve]
18 | CCOc1c(OC(C)=O)ccc(/C=C/c2ccc3cccc(OC)c3n2)c1[N+](=O)[O-] | 14.1 µM [rising, partial curve, poor fit] | –
19 | CC(C)CNC(=O)C1CCN(Cc2ccc(OCc3ccccc3)cc2)CC1 | 35.5 µM [rising, single point] | 35.5 µM [rising, single point]

A second format for 4 compounds above.
Row	SMILES	AC50 [1]	AC50 [2]
2	CSc1nc(N)c(C#N)c(-c2ccc(Cl)cc2)c1C#N	0.0224 µM [falling, full curve, poor fit]	–
10	CC(=O)c1c(C)[nH]c(C(=O)OCc2nnc(-c3ccccc3)o2)c1C	17.8 µM [rising, single point]	11.2 µM [rising, single point]
11	CCOc1ccccc1NS(=O)(=O)c1cc2[nH]c(=O)c(=O)[nH]c2cc1C	0.02 µM [falling, partial curve, poor fit]	0.0224 µM [falling, partial curve, poor fit]
16	Cc1ccc(C(=O)CSC2=C(C#N)C(c3ccco3)CC(=O)N2)c(C)c1 (configuration not stated)	20 µM [rising, single point]	11.2 µM [rising, single point]

Next results

Row | SMILES | AC50 [1] | AC50 [2]
20 | CCc1ccc(/C=C2/C(=O)N(C)C(=S)N2CC(=O)OC)s1 | – | 35.5 µM [falling, partial curve, poor fit]
21 | O=C(Nc1cccc(Cl)c1)N1CC2CCCN2c2ccccc21 (configuration not stated) | 35.5 µM [rising, single point] | 31.6 µM [rising, single point]
22 | Cc1cc(C)c(OCC(=O)N/N=C/c2ccc3c(c2)OCO3)c(C)c1 | 3.55 µM [rising, full curve] | –
23 | CCCC1/C(=N/O)CC(c2ccccc2)NC1c1ccccc1 (configuration not stated) | 5.01 µM [falling, partial curve] | 10 µM [falling, partial curve]
24 | CCCOc1c(OC)cccc1C1CC(=O)Nc2cc3c(cc21)OCCO3 (configuration not stated) | 35.5 µM [falling, single point] | 35.5 µM [falling, single point]
25 | COc1ccc(CNC(=O)c2ccc3c(c2)nc2n3CCCCC2)cc1 | – | 0.631 µM [rising, single point]
26 | CCCCc1nnc(NC(=O)C2CC(=O)N(c3ccc(C)cc3)C2)s1 (configuration not stated) | – | 11.2 µM [rising, partial curve, poor fit]
27 | CC(C)c1ccc(/C=N/N2CCCCC2)cc1 | – | 14.1 µM [falling, single point]
28 | CCc1c(C)nc2c(C#N)c[nH]n2c1=O | 3.16 µM [rising, partial curve, poor fit] | –
29 | O=S(=O)(NCC(c1cccs1)S(=O)(=O)c1ccccc1)c1ccccc1 (configuration not stated) | 1.58 µM [rising, full curve] | –
30 | O=c1oc(Nc2ccc(F)cc2)nc2ccccc12 | 0.447 µM [falling, partial curve, poor fit] | –
31 | Nc1nnc(-c2cccc(Cl)c2Cl)c(N)n1 | – | 3.16 µM [rising, partial curve]
32 | COc1ccc(/C=N/S(=O)(=O)CCc2ccccc2)c(OC)c1 | – | 8.91 µM [falling, partial curve]
33 | CCOC(=O)n1c(=O)n(Cc2cccc(F)c2)c2ccccc21 | 0.708 µM [falling, full curve] | 20 µM [falling, partial curve, poor fit]
34 | COc1ccccc1CCn1cnc2c3cc(C)ccc3n(C)c2c1=O | 14.1 µM [rising, partial curve] | 5.62 µM [rising, partial curve]
35 | COC(=O)c1sc2ncccc2c1OCc1cccc(Cl)c1 | 35.5 µM [rising, single point] | 1.78 µM [rising, partial curve, poor fit]
36 | COc1ccc(-c2csc(NC(=O)c3ccco3)n2)cc1 | 22.4 µM [rising, single point] | –
37 | CCOc1ccccc1CNC(=O)c1ccc(-n2c(C)cc3c2CCC(C)C3)cc1 (configuration not stated) | 15.8 µM [rising, single point] | –
38 | COc1ccc2[nH]c(=O)c(CN(Cc3ccccc3)C(=S)NCC3CCCO3)cc2c1 (configuration not stated) | 0.891 µM [falling, full curve, poor fit] | 0.891 µM [falling, full curve, poor fit]

Row | SMILES | AC50 [1] | AC50 [2]
39 | Oc1cc(O)cc(/C=C/c2ccc(O)c(O)c2)c1 | 0.0562 µM [falling, full curve, poor fit] | 12.6 µM [falling, partial curve]
40 | O=C(/C=C/c1cccs1)N1CCN(c2ccc(O)cc2)CC1 | 14.1 µM [rising, partial curve] | –
41 | COc1ccc(CCNC(=O)c2c[nH]c3ccccc3c2=O)cc1OC | 35.5 µM [rising, single point] | –
42 | O=S(Cc1ccccc1)CC(O)(c1ccc(Cl)cc1)c1ccc(Cl)cc1 (configuration not stated) | 0.631 µM [falling, full curve] | 0.708 µM [falling, partial curve, poor fit]
43 | CCOC(=O)c1c(-c2ccccc2)csc1N1C(=O)Nc2ccccc2N1O | 0.0224 µM [rising, full curve, poor fit] | 0.0251 µM [rising, full curve]
44 | COc1ccc(N2CCN(C(=O)CN(CCc3ccccc3)S(C)(=O)=O)CC2)cc1 | 31.6 µM [rising, single point] | –
45 | CC1CCN(CCCCOc2ccccc2Br)CC1 | 35.5 µM [rising, single point] | –
46 | Cn1nnnc1SCC1=C(C(=O)O)N2C(=O)[C@@H](NC(=O)[C@@H](O)c3ccccc3)[C@@H]2SC1 | 0.000891 µM [falling, full curve, poor fit] | 0.282 µM [falling, full curve, poor fit]
47 | CCc1ccc(C(=O)CSc2nc3cc(S(=O)(=O)N4CCOCC4)ccc3n2CC)cc1 | 35.5 µM [rising, single point] | –
48 | Oc1ccccc1/C=N/Nc1nccnc1Cl | 6.31 µM [rising, partial curve] | –
49 | CC1N(O)C(c2ccc(Cl)cc2Cl)N(O)C1(C)C (configuration not stated) | 3.55 µM [falling, partial curve, poor fit] | –
50 | COCCn1c(C)cc(C(=O)CSc2ccc3ccccc3n2)c1C | 12.6 µM [rising, partial curve] | –
51 | Cc1nn(-c2ccccc2)c2nc(-c3cccs3)cc(C(=O)NN)c12 | 0.0224 µM [falling, full curve, poor fit] | –
52 | CNC(=O)[C@H]1O[C@@H](n2cnc3c(NCc4cccc(I)c4)ncnc32)[C@H](O)[C@H]1O | 6.31 µM [rising, single point] | 6.31 µM [rising, partial curve, poor fit]
53 | CCOC(=O)c1ccc(NS(=O)(=O)c2cc(-c3nnnn3C(C)C)ccc2OC)cc1 | 7.94 µM [rising, partial curve] | 10 µM [rising, partial curve, poor fit]
54 | COC(=O)c1c(C#N)c(N)nc2c1CCCC2 | – | 6.31 µM [falling, single point]
55 | CCCCS/C(N)=N/N=C/c1cc(C)ccc1O | – | 0.112 µM [rising, full curve, poor fit]
56 | CCOC(=O)c1[nH]c2c(c1C)C(=O)CC(c1ccc(N(C)C)cc1)C2 (configuration not stated) | 14.1 µM [rising, partial curve] | –
